Measurements published in publication PMC5520747.
These are yes or no findings as the source states them, for the method shown. Binding seen in cells or lysates may run through a third protein. Some entries that bind do so weakly or less than the wild type. Blank lines part the entries; values can stand above or below the substance they belong to.

Chains of the proteins cited; added tags and fusions are not shown. Lines headed by an entry give the natural chain unless they say otherwise; changes in a name come on top. A line that says so, or that is headed by a name, gives the form on record, which may keep a tag or linker.
UniProt Q03135: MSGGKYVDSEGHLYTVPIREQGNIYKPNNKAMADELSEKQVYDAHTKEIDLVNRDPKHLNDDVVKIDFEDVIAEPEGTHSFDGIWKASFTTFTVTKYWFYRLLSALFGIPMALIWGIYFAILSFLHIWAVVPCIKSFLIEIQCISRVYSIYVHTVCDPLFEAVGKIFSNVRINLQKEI
CAV1ΔIM-HA (Q03135, form named): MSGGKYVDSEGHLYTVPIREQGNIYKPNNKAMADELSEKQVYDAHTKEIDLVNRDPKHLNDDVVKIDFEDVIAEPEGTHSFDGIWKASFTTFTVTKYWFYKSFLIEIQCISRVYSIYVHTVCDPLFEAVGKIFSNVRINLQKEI
CAV1ΔSD-HA (Q03135, form named): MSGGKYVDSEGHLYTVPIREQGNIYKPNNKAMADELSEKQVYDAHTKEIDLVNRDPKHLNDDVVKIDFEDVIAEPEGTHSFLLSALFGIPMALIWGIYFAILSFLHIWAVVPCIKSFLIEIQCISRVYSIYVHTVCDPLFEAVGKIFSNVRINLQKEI
UniProt Q14457: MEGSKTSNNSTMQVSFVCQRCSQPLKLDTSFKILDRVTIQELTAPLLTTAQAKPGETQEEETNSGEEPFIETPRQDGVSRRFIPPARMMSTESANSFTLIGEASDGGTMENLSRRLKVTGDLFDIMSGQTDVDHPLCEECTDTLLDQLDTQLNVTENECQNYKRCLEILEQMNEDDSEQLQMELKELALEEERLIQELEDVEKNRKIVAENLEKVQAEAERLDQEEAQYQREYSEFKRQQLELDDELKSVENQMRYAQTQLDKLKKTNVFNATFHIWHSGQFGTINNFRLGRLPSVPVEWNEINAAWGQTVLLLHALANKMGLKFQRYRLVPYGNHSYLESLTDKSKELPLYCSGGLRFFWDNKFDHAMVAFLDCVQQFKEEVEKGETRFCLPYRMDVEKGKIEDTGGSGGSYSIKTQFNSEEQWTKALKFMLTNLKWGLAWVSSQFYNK
UniProt Q6ZNE5: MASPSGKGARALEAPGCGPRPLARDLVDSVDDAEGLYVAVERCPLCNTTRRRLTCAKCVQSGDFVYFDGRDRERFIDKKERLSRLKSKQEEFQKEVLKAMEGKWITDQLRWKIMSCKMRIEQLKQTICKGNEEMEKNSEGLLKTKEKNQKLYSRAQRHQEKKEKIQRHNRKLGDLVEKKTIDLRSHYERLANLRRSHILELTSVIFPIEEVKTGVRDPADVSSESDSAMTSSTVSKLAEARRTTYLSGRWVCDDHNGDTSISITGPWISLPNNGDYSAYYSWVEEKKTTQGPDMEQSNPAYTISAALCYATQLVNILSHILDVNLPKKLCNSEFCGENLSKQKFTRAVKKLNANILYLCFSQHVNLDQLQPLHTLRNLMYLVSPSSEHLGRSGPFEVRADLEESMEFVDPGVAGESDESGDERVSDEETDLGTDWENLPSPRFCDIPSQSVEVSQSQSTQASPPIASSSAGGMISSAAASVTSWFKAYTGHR

What was measured:
[1] = molecular target: HA-tagged CAV1 (Caveolin1), full length (UniProt Q03135); test: co-IP; IP assay of CAV1-HA with ATG14-flag or UVRAG-flag (Supplementary Figure S3a and b); cells and precipitating antibody not shown
CAV1-Y14D-HA = CAV1-Y14D-HA (UniProt Q03135); test: co-IP; HEK293T transfected 24 h; IP with anti-HA antibody (CAV1-HA variant as bait), western blot; lysis in modified RIPA (10 mM Tris-HCl, 150 mM NaCl, 5 mM EDTA, 1 mM Na3VO4, 1% CHAPS); cells untreated or treated with 1 mM H2O2 up to 30 min
[2] = molecular target: HA-tagged CAV1 (Caveolin1), full length (UniProt Q03135); test: as above
BECN1-flag, full length = BECN1-flag, full length (UniProt Q14457); test: co-IP; HEK293T co-transfected 24 h; IP with anti-Flag antibody (BECN1-flag as bait), western blot; lysis in modified RIPA

Substance: ATG14-flag (from UniProt Q6ZNE5 1-492)
binding [1]: binds

Substance: BECN1-flag, full length (from UniProt Q14457 1-450)
binding [2]: binds

Substance: CAV1ΔIM-HA (from UniProt Q03135 1-178)
binding (BECN1-flag, full length): binds

Substance: CAV1ΔSD-HA (from UniProt Q03135 1-178)
binding (BECN1-flag, full length): no binding

Other lines, results leading:

binding (CAV1-Y14D-HA): binds
Substance: BECN1 (in HEK293T lysate, Figure 5c) (from UniProt Q14457 1-450)

binding [2]: binds
Substance: BECN1 (transfected, Figure 3a; no tag named) (from UniProt Q14457 1-450)

binding (BECN1-flag, full length): binds
Substance: HA-tagged CAV1 (Caveolin1), full length (from UniProt Q03135 1-178)
